Assays:
[1] = test system: FXIII-deficient plasma thrombi; test: Electron microscopy of thrombus ultrastructure, FXIII-deficient plasma; set-up: species or system human; conditions: 100 μM CORM-2 vs 0 μM
normal plasma thrombi = test: Electron microscopy of thrombus ultrastructure, normal plasma; set-up: species or system human; conditions: 100 μM CORM-2 vs 0 μM
[2] = highest magnification (60,000-fold)

[C-]#[O+].[C-]#[O+].[C-]#[O+].[C-]#[O+].[C-]#[O+].[C-]#[O+].[Cl][Ru][Cl].[Cl][Ru][Cl] [CORM-2, tricarbonyldichlororuthenium (II) dimer]
thin fiber architecture in thrombus ultrastructure [1, 2]: an increase in the thin fiber architecture | thick and fine fiber content in thrombus ultrastructure ([1]; low magnification (5,000-fold)): a reduction in thick fiber formation coupled with enhanced fine fiber content | thin fiber architecture in thrombus ultrastructure (normal plasma thrombi; [2]): no remarkable difference in the thin fiber architecture | thick fiber formation in thrombus ultrastructure (normal plasma thrombi; low magnification (5,000-fold)): a reduction in thick fiber formation
